# The other results are listed elsewhere or left out. Most entries show no effect beyond the scatter of the controls.
# The chains behind the UniProt entries cited, without tags or fusion partners. Where a name states a change or a piece, a line headed by the entry shows the natural chain unless it says otherwise.
# UniProt Q9UBK8: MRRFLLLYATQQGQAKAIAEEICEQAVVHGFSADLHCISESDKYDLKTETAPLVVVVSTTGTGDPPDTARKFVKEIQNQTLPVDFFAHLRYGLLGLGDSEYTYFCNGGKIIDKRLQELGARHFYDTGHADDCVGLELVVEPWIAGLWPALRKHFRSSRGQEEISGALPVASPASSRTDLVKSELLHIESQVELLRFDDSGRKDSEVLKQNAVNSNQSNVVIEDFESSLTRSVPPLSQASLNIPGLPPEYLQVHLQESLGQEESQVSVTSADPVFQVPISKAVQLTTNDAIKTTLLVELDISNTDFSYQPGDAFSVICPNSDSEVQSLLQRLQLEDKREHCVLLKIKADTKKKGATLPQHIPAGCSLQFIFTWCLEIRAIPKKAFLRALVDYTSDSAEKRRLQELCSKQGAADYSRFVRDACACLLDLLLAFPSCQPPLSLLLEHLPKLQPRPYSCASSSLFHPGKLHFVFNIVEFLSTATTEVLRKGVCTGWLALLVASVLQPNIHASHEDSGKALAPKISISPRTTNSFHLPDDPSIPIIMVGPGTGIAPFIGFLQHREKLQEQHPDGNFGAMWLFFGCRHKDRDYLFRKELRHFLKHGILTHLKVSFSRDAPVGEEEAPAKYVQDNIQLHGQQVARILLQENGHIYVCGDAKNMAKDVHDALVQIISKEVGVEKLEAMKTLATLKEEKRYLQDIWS
# UniProt Q9P086: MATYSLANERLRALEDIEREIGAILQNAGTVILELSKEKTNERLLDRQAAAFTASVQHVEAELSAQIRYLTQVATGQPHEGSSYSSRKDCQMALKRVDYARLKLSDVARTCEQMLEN
# UniProt Q9NZ09: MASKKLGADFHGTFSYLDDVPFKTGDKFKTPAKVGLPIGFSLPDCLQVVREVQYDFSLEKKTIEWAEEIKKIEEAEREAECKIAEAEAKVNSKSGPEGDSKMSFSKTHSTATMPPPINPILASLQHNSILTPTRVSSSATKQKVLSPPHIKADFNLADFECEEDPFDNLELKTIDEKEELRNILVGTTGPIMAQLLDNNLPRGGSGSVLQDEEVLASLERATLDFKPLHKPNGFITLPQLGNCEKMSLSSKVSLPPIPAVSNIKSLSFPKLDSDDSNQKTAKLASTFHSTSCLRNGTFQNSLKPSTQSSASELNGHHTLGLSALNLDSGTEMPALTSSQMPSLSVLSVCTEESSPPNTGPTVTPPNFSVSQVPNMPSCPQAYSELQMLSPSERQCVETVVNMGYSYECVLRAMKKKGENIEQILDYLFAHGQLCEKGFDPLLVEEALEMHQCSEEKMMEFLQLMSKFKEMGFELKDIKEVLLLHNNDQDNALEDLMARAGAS
# UniProt Q9P2K2: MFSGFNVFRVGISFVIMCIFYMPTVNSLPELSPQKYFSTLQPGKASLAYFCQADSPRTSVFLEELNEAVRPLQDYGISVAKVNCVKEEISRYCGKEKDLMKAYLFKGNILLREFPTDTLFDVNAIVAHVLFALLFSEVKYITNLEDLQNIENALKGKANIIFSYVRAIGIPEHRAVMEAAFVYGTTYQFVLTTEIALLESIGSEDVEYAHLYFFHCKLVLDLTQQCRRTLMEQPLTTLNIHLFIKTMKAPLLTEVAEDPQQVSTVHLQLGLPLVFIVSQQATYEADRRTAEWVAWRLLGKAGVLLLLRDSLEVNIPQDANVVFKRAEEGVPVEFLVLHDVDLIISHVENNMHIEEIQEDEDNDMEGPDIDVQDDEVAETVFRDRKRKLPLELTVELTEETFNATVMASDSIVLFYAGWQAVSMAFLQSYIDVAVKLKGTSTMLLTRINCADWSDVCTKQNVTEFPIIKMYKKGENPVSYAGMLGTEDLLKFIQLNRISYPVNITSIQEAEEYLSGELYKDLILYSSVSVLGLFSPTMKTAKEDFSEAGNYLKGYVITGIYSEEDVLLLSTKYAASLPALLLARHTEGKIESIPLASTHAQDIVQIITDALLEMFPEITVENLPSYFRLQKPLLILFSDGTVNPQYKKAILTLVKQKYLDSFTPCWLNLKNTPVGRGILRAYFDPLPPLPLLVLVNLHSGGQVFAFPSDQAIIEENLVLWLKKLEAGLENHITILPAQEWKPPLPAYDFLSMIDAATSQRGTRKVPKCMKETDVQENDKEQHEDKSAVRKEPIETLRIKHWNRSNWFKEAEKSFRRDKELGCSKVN
# UniProt Q9UH62: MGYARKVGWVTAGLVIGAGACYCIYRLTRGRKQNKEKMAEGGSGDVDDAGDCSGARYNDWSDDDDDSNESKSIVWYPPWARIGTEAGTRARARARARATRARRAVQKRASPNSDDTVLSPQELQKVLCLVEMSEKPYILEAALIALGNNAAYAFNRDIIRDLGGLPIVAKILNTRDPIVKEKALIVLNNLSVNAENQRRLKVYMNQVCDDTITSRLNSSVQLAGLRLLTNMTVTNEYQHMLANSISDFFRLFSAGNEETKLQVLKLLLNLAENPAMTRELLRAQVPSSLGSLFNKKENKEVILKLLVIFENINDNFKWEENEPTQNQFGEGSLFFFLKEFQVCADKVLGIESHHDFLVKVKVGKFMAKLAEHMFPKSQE
# UniProt Q9P2D6: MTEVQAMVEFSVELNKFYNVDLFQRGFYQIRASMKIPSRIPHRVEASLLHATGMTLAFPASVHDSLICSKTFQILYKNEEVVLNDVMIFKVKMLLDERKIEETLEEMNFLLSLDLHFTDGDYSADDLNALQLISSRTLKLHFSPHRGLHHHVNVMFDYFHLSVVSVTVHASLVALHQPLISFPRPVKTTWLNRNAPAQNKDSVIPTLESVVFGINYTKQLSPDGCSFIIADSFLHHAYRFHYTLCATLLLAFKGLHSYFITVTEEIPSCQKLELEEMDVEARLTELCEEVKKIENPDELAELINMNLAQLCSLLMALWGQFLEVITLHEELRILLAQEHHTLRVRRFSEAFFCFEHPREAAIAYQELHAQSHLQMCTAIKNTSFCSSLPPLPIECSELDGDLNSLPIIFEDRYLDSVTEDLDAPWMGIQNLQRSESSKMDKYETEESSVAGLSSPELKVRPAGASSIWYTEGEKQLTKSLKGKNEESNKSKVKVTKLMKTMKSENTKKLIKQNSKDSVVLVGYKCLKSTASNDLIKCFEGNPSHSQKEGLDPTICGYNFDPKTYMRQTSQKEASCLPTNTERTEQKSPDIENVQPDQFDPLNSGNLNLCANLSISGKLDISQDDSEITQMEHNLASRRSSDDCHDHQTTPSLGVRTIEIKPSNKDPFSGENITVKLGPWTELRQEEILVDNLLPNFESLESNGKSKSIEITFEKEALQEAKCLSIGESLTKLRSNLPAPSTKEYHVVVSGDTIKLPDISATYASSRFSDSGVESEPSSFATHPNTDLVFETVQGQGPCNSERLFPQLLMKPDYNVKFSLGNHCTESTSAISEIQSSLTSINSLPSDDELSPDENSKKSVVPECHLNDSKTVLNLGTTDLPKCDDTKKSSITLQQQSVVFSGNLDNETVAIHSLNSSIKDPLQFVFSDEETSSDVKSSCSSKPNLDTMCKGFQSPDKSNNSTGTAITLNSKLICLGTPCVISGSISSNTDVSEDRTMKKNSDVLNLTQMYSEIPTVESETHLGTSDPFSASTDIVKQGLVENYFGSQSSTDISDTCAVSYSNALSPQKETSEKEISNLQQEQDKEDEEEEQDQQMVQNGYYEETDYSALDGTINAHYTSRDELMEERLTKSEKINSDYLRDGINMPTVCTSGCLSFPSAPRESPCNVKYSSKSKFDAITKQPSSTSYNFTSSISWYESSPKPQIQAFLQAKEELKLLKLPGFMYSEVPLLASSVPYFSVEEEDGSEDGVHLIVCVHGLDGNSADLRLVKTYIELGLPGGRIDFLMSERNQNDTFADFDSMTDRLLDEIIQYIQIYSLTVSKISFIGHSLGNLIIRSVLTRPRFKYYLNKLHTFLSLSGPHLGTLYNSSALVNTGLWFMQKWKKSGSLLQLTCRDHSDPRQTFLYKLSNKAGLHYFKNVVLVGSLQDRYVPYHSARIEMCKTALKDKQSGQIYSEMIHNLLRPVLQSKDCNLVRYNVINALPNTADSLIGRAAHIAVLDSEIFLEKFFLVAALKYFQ
# UniProt Q9NZ63: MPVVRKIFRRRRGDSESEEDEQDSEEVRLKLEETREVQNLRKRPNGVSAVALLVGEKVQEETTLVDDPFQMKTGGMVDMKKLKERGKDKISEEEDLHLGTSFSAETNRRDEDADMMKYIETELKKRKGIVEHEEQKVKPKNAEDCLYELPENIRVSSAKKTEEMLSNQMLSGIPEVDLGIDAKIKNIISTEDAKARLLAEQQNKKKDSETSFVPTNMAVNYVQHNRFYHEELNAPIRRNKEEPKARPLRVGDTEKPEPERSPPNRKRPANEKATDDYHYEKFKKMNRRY
# UniProt Q9NZ32, whole entry: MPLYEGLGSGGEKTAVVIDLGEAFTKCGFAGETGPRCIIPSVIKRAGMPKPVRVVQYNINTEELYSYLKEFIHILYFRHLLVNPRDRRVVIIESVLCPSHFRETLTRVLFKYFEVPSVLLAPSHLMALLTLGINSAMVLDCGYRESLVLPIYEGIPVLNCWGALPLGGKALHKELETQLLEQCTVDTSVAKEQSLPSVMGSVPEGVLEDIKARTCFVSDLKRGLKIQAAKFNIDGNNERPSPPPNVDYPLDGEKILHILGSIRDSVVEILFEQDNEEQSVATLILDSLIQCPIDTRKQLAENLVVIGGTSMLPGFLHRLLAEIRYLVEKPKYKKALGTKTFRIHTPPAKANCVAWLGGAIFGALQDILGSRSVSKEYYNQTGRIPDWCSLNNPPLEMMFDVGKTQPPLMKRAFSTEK
# UniProt Q9UHA2: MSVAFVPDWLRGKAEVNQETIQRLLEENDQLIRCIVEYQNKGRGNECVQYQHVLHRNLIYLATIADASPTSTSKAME
# UniProt Q9NZM4: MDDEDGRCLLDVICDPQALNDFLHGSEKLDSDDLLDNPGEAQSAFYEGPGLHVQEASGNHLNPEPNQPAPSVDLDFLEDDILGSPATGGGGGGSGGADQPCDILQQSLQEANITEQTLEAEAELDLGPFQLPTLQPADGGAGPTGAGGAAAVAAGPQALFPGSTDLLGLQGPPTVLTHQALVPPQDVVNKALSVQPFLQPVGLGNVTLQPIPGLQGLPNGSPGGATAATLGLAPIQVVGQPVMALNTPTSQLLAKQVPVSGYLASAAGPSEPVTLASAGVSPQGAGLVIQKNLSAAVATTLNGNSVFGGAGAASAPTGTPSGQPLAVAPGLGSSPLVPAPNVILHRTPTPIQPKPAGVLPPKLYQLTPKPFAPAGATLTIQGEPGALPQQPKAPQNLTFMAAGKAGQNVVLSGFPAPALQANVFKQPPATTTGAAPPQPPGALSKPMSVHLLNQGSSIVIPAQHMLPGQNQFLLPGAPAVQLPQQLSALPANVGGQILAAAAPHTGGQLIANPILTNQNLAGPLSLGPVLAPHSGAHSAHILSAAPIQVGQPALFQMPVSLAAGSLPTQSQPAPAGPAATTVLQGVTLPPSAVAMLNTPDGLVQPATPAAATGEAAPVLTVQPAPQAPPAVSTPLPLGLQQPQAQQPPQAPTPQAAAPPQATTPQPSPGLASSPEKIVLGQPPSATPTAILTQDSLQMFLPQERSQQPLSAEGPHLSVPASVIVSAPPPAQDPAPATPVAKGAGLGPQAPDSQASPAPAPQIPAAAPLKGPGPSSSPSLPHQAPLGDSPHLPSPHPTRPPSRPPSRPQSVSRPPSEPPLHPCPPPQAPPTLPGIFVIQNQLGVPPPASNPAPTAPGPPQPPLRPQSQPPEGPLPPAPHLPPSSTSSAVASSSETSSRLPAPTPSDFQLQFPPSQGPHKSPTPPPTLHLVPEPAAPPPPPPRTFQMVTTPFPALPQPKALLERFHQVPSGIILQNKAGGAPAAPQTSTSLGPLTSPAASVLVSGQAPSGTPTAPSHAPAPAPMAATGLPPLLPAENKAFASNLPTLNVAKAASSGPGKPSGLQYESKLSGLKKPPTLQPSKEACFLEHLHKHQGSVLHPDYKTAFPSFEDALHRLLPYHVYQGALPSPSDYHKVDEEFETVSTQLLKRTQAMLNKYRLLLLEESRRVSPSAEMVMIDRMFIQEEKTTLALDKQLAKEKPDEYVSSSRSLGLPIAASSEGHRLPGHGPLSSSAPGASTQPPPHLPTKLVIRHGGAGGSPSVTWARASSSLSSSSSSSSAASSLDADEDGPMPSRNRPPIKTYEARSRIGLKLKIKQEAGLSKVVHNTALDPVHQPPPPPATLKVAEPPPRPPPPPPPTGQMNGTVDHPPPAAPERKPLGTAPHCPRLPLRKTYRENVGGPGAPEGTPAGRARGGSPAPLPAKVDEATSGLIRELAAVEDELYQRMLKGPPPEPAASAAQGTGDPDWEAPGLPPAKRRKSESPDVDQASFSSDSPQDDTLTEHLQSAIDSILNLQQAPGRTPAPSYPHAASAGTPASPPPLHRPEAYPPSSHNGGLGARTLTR
# UniProt Q9NXJ5: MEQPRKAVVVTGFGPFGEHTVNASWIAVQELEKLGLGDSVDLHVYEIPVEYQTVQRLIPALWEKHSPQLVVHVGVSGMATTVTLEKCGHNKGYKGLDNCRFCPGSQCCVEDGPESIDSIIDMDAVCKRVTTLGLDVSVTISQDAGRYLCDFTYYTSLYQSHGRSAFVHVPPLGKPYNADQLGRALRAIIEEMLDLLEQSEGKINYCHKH
# Compound: Cc1nc(Nc2ncc(C(=O)Nc3c(C)cccc3Cl)s2)cc(N2CCN(CCO)CC2)n1 [dasatinib]
# Test: log2 fold change of tryptic peptide abundance, ligand vs vehicle (limited proteolysis) (log2 ratio); higher = more trypsin-susceptible (destabilized)
# Conditions: ligand concentration: 5 uM; sample: K562 cleared lysate
row,Target,log2 fold change
1,"UniProt Q9UHA3 (peptide sequence: ELTVDNSFEFEKR, peptide start residue: 62)",0.104
2,"MTRR (peptide sequence: FDDSGRKDSEVLK, peptide start residue: 196) (UniProt Q9UBK8)",-0.158
3,"UniProt Q9P225 (peptide sequence: KQEFRDDIK, peptide start residue: 2794)",-0.274
4,"MED11 (peptide sequence: KDCQMALK, peptide start residue: 88) (UniProt Q9P086)",-0.302
5,"SMARCAL1 (peptide sequence: QGPSQNFPR, peptide start residue: 51) (UniProt Q9NZC9)",0.429
6,"GRHPR (peptide sequence: ILDAAGANLK, peptide start residue: 67) (UniProt Q9UBQ7)",0.176
7,"UBAP1 (peptide sequence: VLSPPHIK, peptide start residue: 144) (UniProt Q9NZ09)",0.567
8,"TXNDC16 (peptide sequence: KEPIETLR, peptide start residue: 789) (UniProt Q9P2K2)",-0.306
9,"UniProt Q9P2N6 (peptide sequence: KKSEGLTQSMVDR, peptide start residue: 446)",-0.496
10,"ARMCX3 (peptide sequence: DIIRDLGGLPIVAK, peptide start residue: 157) (UniProt Q9UH62)",-0.589
11,"LARS (peptide sequence: GKYFVTFPYPYMNGR, peptide start residue: 44) (UniProt Q9P2J5)",0.104
12,"NSMCE4A (peptide sequence: SGDSSGRGPEGR, peptide start residue: 2) (UniProt Q9NXX6)",-0.526
13,"UniProt Q9NZQ9 (peptide sequence: FGYHFTQQGPR, peptide start residue: 315)",-0.0935
14,"SERGEF (peptide sequence: VTYLSPDAIEDTESQKAMDKER, peptide start residue: 414) (UniProt Q9UGK8)",-0.252
15,"FAM135A (peptide sequence: SSDDCHDHQTTPSLGVR, peptide start residue: 639) (UniProt Q9P2D6)",-0.344
16,"IBTK (peptide sequence: SLDVLSDGVLK, peptide start residue: 911) (UniProt Q9P2D0)",-0.49
17,"C9orf78 (peptide sequence: DEDADMMK, peptide start residue: 110) (UniProt Q9NZ63)",-0.0764
18,"DNAJB11 (peptide sequence: CNCRQEMR, peptide start residue: 169) (UniProt Q9UBS4)",0.233
19,"ACTR10 (peptide sequence: CGFAGETGPR, peptide start residue: 27) (UniProt Q9NZ32)",0.655

# Some of the entries so far, as tab-separated lines:
row	Target	log2 fold change
2	MTRR (peptide sequence: FDDSGRKDSEVLK, peptide start residue: 196) (UniProt Q9UBK8)	-0.158
3	UniProt Q9P225 (peptide sequence: KQEFRDDIK, peptide start residue: 2794)	-0.274

# Continued:

row,Target,log2 fold change
1,"VTI1B (peptide sequence: YGIYAVENEHMNR, peptide start residue: 112) (UniProt Q9UEU0)",0.244
2,"DPP3 (peptide sequence: GDYAPILQK, peptide start residue: 249) (UniProt Q9NY33)",0.262
3,"UniProt Q9UHA2 (peptide sequence: GNECVQYQHVLHR, peptide start residue: 44)",-0.192
4,"SIPA1L2 (peptide sequence: VINAENAAHKSEK, peptide start residue: 788) (UniProt Q9P2F8)",-0.419
5,"NCDN (peptide sequence: RIFDAVGFTFPNR, peptide start residue: 75) (UniProt Q9UBB6)",0.179
6,"BICRA (peptide sequence: FHQVPSGIILQNK, peptide start residue: 963) (UniProt Q9NZM4)",-0.538
7,"UniProt Q9P032 (peptide sequence: MKPSVAPR, peptide start residue: 25)",0.147
8,"FAM53C (peptide sequence: SLSVPVDLSR, peptide start residue: 120) (UniProt Q9NYF3)",-0.108
9,"TES (peptide sequence: MGLGHEQGFGAPCLKCK, peptide start residue: 10) (UniProt Q9UGI8)",0.114
10,"PGPEP1 (peptide sequence: LIPALWEK, peptide start residue: 57) (UniProt Q9NXJ5)",-0.0569
11,"HSPBP1 (peptide sequence: YLEAGAAGLR, peptide start residue: 153) (UniProt Q9NZL4)",-0.188
12,"VPS54 (peptide sequence: LSHYLDIVEVNIAHQISLR, peptide start residue: 209) (UniProt Q9P1Q0)",0.257
13,"RRN3 (peptide sequence: FGGTVTEVLLK, peptide start residue: 52) (UniProt Q9NYV6)",-0.177
14,"NIPSNAP3A (peptide sequence: SYYLKPSK, peptide start residue: 41) (UniProt Q9UFN0)",0.13
15,"UniProt Q9UEE5 (peptide sequence: GLSGPCRPPPPPQAR, peptide start residue: 26)",-0.071
16,"LYAR (peptide sequence: SEEELLVIFNKK, peptide start residue: 350) (UniProt Q9NX58)",-2.01
17,"TMOD3 (peptide sequence: STTGPFDREHLLSYLEK, peptide start residue: 59) (UniProt Q9NYL9)",-0.0958
18,"CTSZ (peptide sequence: NQHIPQYCGSCWAHASTSAMADR, peptide start residue: 82) (UniProt Q9UBR2)",0.198

# Source: the supplement of paper PMC12819154, “High-throughput peptide-centric local stability assay extends protein–ligand identification to membrane proteins, tissues and bacteria” (Nature Structural & Molecular Biology, 2025)
